The values below come from publication PMC10743472.

The chains behind the UniProt entries cited, without tags or fusion partners. Residues count along the entry.
UniProt Q8K0D5, residues 38-751: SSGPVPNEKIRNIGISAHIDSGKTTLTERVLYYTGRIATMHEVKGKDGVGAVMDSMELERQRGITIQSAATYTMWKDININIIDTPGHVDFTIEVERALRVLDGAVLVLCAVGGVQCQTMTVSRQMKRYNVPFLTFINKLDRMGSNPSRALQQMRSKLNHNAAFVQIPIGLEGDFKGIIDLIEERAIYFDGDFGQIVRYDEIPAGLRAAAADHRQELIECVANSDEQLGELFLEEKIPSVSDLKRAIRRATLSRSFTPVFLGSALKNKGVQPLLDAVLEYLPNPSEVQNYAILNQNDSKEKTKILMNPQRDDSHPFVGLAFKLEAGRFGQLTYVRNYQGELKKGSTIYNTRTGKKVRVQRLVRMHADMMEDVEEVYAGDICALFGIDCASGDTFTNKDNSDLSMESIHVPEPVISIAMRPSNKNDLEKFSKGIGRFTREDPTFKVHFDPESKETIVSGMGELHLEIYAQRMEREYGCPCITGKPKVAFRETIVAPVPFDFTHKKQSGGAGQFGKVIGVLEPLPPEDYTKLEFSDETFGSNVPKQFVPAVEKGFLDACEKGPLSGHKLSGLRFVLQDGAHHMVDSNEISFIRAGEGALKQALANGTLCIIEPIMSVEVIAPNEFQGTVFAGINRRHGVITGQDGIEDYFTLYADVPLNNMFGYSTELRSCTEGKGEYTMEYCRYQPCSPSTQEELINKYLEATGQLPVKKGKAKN
UniProt Q8K2M0, residues 27-380: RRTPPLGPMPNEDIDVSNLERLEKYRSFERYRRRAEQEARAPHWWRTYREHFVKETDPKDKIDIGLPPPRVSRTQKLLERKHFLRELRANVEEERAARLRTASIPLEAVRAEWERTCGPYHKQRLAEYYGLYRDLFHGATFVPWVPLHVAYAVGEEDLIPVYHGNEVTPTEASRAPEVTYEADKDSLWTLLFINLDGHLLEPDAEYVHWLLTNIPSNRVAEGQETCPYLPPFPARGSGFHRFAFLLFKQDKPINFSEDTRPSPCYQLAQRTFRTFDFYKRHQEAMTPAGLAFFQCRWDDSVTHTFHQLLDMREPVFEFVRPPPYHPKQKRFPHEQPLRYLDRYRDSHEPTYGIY

These are yes or no findings as the source states them, for the method shown. Binding seen in cells or lysates may run through a third protein. Some results given as binding are weak or reduced against the parent protein; the word gives no strength.

Experiment [1] deals with CLPX, specificity component of Clp protease complex, AAA+ ATPase (mouse (endogenous in mouse tissues)) (UniProt Q9JHS4). The experiment can be described thus: co-IP; pull with anti-CLPX (Invitrogen), CLPP detected with anti-CLPP (Proteintech) as positive control; tissue and fraction not told in the legend.
Experiment [2] concerns the target GFM1, translation elongation factor G 1, mitochondrial (mouse (endogenous in mouse tissues)) (UniProt Q8K0D5). The experiment can be described thus: co-IP; mouse liver and testis whole-cell lysates, WT and CLPP-null; pull with anti-CLPX (NSJ Bioreagents) or anti-GFM1 (Proteintech) on Dynabeads, lysis buffer with 1% NP40, 137 mM NaCl, pH 8.0; immunoblot of endogenous proteins. On the technique in general: Immunoblotting shows a protein as a band on a membrane.

The target of experiment [3] is CLPX, specificity component of Clp protease complex, AAA+ ATPase (mouse (endogenous in mouse tissues)) (UniProt Q9JHS4). Description: co-IP; mouse liver mitochondrial fractions, WT and CLPP-null; pull with anti-CLPX (Invitrogen) on Dynabeads, lysis buffer with 1% NP40, 137 mM NaCl, pH 8.0; immunoblot of endogenous proteins.
For experiment [4] the target is unchanged. Description: co-IP; mouse liver and testis whole-cell lysates, WT and CLPP-null; pull with anti-CLPX (NSJ Bioreagents) or anti-GFM1 (Proteintech) on Dynabeads, lysis buffer with 1% NP40, 137 mM NaCl, pH 8.0; immunoblot of endogenous proteins.

In the case of “CLPP, ATP-dependent Clp protease proteolytic subunit, mitochondrial (from UniProt O88696 53-272)”, the binding entry in experiment [1] is given as “binds”.
Take “CLPX, specificity component of Clp protease complex, AAA+ ATPase (from UniProt Q9JHS4 57-634)”: the binding result in experiment [2] is given as “binds”.
“GFM1, translation elongation factor G 1, mitochondrial (from UniProt Q8K0D5 38-751)”: in experiment [3], the binding result is recorded as “binds”.
As to “MRPL38, mitochondrial ribosomal protein L38 (from UniProt Q8K2M0 27-380)”, the binding result in experiment [4] is reported as “binds”.
